## Drug screen on melanoma cell lines: apoptosis marker

Source: doi:10.1371/journal.pone.0140310, primary screening data, rounded.

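Human melanoma cell lines in 1,536-well plates were treated with a pair of drugs for 72 h, then fixed, stained and imaged. Each value is the cleaved-PARP-positive fraction of nuclei relative to DMSO-treated wells, in %, so that 100 equals the control and higher values mean more apoptosis. Concentrations were fixed for each drug; these are the higher of two levels. These are primary screening values without error estimates. Basal and induced levels differ widely between cell lines.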
This is part of the screen, not chosen by result.
An entry leaves out what has no value listed here.

Drugs:
PLX4720: CCCS(=O)(=O)Nc1ccc(F)c(C(=O)c2c[nH]c3ncc(Cl)cc23)c1F at 400 nM
GSK0660: COC(=O)c1sccc1S(=O)(=O)Nc1ccc(Nc2ccccc2)cc1OC at 5000 nM
fludarabine: Nc1nc(F)nc2c1ncn2[C@@H]1O[C@H](CO)[C@@H](O)[C@@H]1O at 1000 nM
PD173074: CCN(CC)CCCCNc1ncc2cc(-c3cc(OC)cc(OC)c3)c(NC(=O)NC(C)(C)C)nc2n1 at 500 nM
nilutamide: CC1(C)NC(=O)N(c2ccc([N+](=O)[O-])c(C(F)(F)F)c2)C1=O at 5000 nM
veliparib: C[C@]1(c2nc3c(C(N)=O)cccc3[nH]2)CCCN1 at 7000 nM
FH535: Cc1cc([N+](=O)[O-])ccc1NS(=O)(=O)c1cc(Cl)ccc1Cl at 5000 nM
erlotinib: C#Cc1cccc(Nc2ncnc3cc(OCCOC)c(OCCOC)cc23)c1 at 4000 nM
docetaxel: CC(=O)O[C@@]12CO[C@@H]1C[C@H](O)[C@@]1(C)C(=O)[C@H](O)C3=C(C)[C@@H](OC(=O)[C@H](O)[C@@H](NC(=O)OC(C)(C)C)c4ccccc4)C[C@@](O)([C@@H](OC(=O)c4ccccc4)[C@H]21)C3(C)C at 0.5 nM

* fludarabine + erlotinib | RVH-421: 221; LOX IMVI: 116; LB2518-MEL: 103; C32: 171
* GSK0660 + fludarabine | RVH-421: 84.7; LOX IMVI: 18.9; LB2518-MEL: 67.8; C32: 84.9
* PLX4720 + PD173074 | RVH-421: 33.5; LOX IMVI: 87.3; LB2518-MEL: 148; C32: 185
* PD173074 + fludarabine | RVH-421: 89.0; LOX IMVI: 39.4; LB2518-MEL: 73.9; C32: 166
* nilutamide + PLX4720 | RVH-421: 82.8; LOX IMVI: 93.2; LB2518-MEL: 115; C32: 71.2
* docetaxel + GSK0660 | RVH-421: 62.1; LOX IMVI: 93.1; LB2518-MEL: 365; C32: 126
* PD173074 + docetaxel | RVH-421: 69.6; LOX IMVI: 212; LB2518-MEL: 277; C32: 97.6
* PD173074 + nilutamide | RVH-421: 89.0; LOX IMVI: 65.3; LB2518-MEL: 198; C32: 85.3
* erlotinib + nilutamide | RVH-421: 103; LOX IMVI: 87.3; LB2518-MEL: 326; C32: 52.7
* veliparib + erlotinib | RVH-421: 56.8; LOX IMVI: 217; LB2518-MEL: 216; C32: 30.8
* fludarabine + veliparib | RVH-421: 88.7; LOX IMVI: 66.2; LB2518-MEL: 189; C32: 34.1
* nilutamide + fludarabine | RVH-421: 86.1; LOX IMVI: 70.2; LB2518-MEL: 136; C32: 43.7
* docetaxel + FH535 | RVH-421: 379; LOX IMVI: 65.1; C32: 114
* veliparib + GSK0660 | RVH-421: 256; LOX IMVI: 28.8; LB2518-MEL: 268; C32: 92.4
* nilutamide + docetaxel | RVH-421: 106; LOX IMVI: 146; LB2518-MEL: 142; C32: 102
* nilutamide + GSK0660 | RVH-421: 87.9; LOX IMVI: 159; LB2518-MEL: 59.6; C32: 85.1
* veliparib + nilutamide | RVH-421: 122; LOX IMVI: 94.1; LB2518-MEL: 61.7; C32: 164
* FH535 + PLX4720 | RVH-421: 186; LOX IMVI: 78.8; LB2518-MEL: 110; C32: 99.6
* PLX4720 + veliparib | RVH-421: 177; LOX IMVI: 191; LB2518-MEL: 203; C32: 235
* erlotinib + PD173074 | RVH-421: 54.9; LOX IMVI: 112; LB2518-MEL: 326; C32: 82.7
* docetaxel + fludarabine | RVH-421: 110; LOX IMVI: 192; LB2518-MEL: 192; C32: 276
* GSK0660 + PLX4720 | RVH-421: 96.9; LOX IMVI: 140; LB2518-MEL: 80.9; C32: 90.9
* FH535 + erlotinib | RVH-421: 140; LOX IMVI: 107; LB2518-MEL: 83.9; C32: 90.1
* veliparib + FH535 | RVH-421: 146; LOX IMVI: 170; LB2518-MEL: 85.2; C32: 128
* veliparib + docetaxel | RVH-421: 379; LOX IMVI: 175; LB2518-MEL: 163; C32: 231
* veliparib + PD173074 | RVH-421: 140; LOX IMVI: 62.5; LB2518-MEL: 75.5; C32: 81.0
* fludarabine + FH535 | RVH-421: 144; LOX IMVI: 245; LB2518-MEL: 238; C32: 87.4
* FH535 + GSK0660 | RVH-421: 115; LOX IMVI: 81.0; LB2518-MEL: 41.7; C32: 96.8
* docetaxel + PLX4720 | RVH-421: 86.9; LOX IMVI: 205; LB2518-MEL: 227; C32: 483
* erlotinib + GSK0660 | RVH-421: 159; LOX IMVI: 44.3; LB2518-MEL: 297; C32: 85.7
* GSK0660 + PD173074 | RVH-421: 112; LOX IMVI: 68.5; LB2518-MEL: 54.7; C32: 95.3
* docetaxel + erlotinib | RVH-421: 146; LOX IMVI: 151; LB2518-MEL: 152; C32: 427
* PD173074 + FH535 | RVH-421: 130; LOX IMVI: 55.8; LB2518-MEL: 165; C32: 123